This is one part of the list. For some assays here: The source does not settle which construct or isoform was used.
Tests used:
Experiment in all cases: protein microarray (ProtoArray v5.0), streptavidin-Alexa Fluor 647
Details in all cases: 3'-biotin; 20 mM Tris (pH 7.5), 5 mM MgCl2, 100 mM KCl, 0.1% Tween-20, A/T-rich and random oligonucleotide blockers; temperature not stated; high values mean tight binding
FGF13 = molecular target: T1, FGF13 (UniProt Q92913)
T1 sequence: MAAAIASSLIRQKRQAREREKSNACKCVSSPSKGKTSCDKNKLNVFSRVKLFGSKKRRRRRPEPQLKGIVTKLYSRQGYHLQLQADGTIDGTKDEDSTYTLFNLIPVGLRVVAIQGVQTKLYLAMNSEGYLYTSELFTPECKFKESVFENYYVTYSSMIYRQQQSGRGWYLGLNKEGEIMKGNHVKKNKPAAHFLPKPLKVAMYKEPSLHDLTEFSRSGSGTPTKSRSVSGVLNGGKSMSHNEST

FGF21 (human) = test system: FGF21 (human)
FKBPL = molecular target: T2, FKBPL (UniProt Q9UIM3)
T2 sequence: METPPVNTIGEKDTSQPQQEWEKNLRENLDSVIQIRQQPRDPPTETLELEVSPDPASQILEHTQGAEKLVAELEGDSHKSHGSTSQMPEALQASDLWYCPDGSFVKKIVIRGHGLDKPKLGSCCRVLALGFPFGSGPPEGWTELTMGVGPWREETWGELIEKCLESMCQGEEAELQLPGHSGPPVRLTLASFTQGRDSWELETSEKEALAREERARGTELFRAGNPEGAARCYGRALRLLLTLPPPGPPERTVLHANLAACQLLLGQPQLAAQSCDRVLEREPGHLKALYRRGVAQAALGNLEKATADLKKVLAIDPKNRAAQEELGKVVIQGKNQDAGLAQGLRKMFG

FLJ10781 (human) = test system: FLJ10781 (human)
FLJ20160 (human) = test system: FLJ20160 (human)
FLJ20489 (human) = test system: FLJ20489 (human)
FLJ25758 (human) = test system: FLJ25758 (human)
FLJ40504 (human) = test system: FLJ40504 (human)
FLJ43980 (human) = test system: FLJ43980 (human)
FLOT2 (human) = test system: FLOT2 (human)
FLT3LG (human) = test system: FLT3LG (human)
FOXP1 (human) = test system: FOXP1 (human)
FREQ (human) = test system: FREQ (human)
FRMD8 (human) = test system: FRMD8 (human)
FRS3 (human) = test system: FRS3 (human)
FTL (human) = test system: FTL (human)
FUNDC2 (human) = test system: FUNDC2 (human)
FXC1 (human) = test system: FXC1 (human)
FXYD1 (human) = test system: FXYD1 (human)
FYCO1 (human) = test system: FYCO1 (human)

GGTGACAGGGGTATGGGGAGGGG [G4-2 biotinylated (Ct1)]
binding signal (FGF13): 4.17 z-score | binding signal (FGF21 (human)): -0.363 z-score | binding signal (FKBPL): -0.388 z-score | binding signal (FLJ10781 (human)): 4.17 z-score | binding signal (FLJ20160 (human)): -0.378 z-score | binding signal (FLJ20489 (human)): -0.386 z-score | binding signal (FLJ25758 (human)): -0.382 z-score | binding signal (FLJ40504 (human)): -0.378 z-score | binding signal (FLJ43980 (human)): -0.397 z-score | binding signal (FLOT2 (human)): -0.383 z-score | binding signal (FLT3LG (human)): -0.38 z-score | binding signal (FOXP1 (human)): -0.394 z-score | binding signal (FREQ (human)): -0.395 z-score | binding signal (FRMD8 (human)): -0.373 z-score | binding signal (FRS3 (human)): -0.392 z-score | binding signal (FTL (human)): -0.39 z-score | binding signal (FUNDC2 (human)): -0.392 z-score | binding signal (FXC1 (human)): -0.389 z-score | binding signal (FXYD1 (human)): -0.379 z-score | binding signal (FYCO1 (human)): -0.374 z-score

— paper PMC5996148
